Results are given in words; binding and its absence hold for the method and conditions named. In cells and extracts the contact can be indirect. These calls come from enrichment with a bait or labelling near it, and not all partners need be listed.

In the assay the target is TbSETD fused to a C-terminal HA tag (TbSETD.HA) (Trypanosoma brucei) (UniProt Q38DP6). The experiment in a line: affinity purification with mass spectrometry.

Regarding “acyl carrier protein (ACP, Tb927.3.860) (from UniProt Q57WW9)”, the binding entry is “binds”. Consider “putative potassium voltage-gated channel (Tb927.10.16170) (from UniProt Q387P8)”, for which the binding result was “binds”.

The values are drawn from paper doi:10.1101/2024.02.23.581798.
